The text below walks through data of paper PMC10121169.

These are yes or no findings as the source states them, for the method shown. Binding seen in cells or lysates may run through a third protein. Some entries that bind do so weakly or less than the wild type. Tags and fused reporters may be left off the sequences shown.

The target in experiment [1] is T1, EGFP-C9ORF72 fusion protein (human (endogenous in hiPSC-MG)) (UniProt Q96LT7).
T1 sequence: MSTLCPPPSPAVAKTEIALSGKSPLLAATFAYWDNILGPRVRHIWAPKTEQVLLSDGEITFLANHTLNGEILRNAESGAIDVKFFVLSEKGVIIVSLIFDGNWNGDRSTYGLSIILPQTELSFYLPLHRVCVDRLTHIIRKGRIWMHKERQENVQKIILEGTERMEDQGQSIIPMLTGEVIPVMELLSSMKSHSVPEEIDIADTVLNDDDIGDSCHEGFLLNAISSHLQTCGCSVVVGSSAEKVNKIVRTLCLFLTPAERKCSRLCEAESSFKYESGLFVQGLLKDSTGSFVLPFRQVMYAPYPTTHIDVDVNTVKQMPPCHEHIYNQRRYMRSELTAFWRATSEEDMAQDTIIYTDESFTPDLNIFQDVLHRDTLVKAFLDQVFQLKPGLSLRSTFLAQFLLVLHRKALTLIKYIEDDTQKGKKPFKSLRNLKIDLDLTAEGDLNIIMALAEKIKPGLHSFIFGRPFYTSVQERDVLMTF
The experiment can be described thus: co-IP; GFP-Trap immunoprecipitation from EGFP-C9ORF72 hiPSC-MG lysate, Western blotting (fig. S6D). Background: In western blotting, separated proteins are transferred to a membrane and probed.

For experiment [2], the target named is T2, EGFP-C9ORF72 fusion protein (human (endogenous in hiPSC-MG)), Q96LT7.
T2 chain: T1 sequence
The experiment is described as above. As to conditions: remark: other sources report otherwise.

B1: SMCR8 (protein, UniProt Q8TEV9 1-937)
chain: MISAPDVVAFTKEEEYEEEPYNEPALPEEYSVPLFPFASQGANPWSKLSGAKFSRDFILISEFSEQVGPQPLLTIPNDTKVFGTFDLNYFSLRIMSVDYQASFVGHPPGSAYPKLNFVEDSKVVLGDSKEGAFAYVHHLTLYDLEARGFVRPFCMAYISADQHKIMQQFQELSAEFSRASECLKTGNRKAFAGELEKKLKDLDYTRTVLHTETEIQKKANDKGFYSSQAIEKANELASVEKSIIEHQDLLKQIRSYPHRKLKGHDLCPGEMEHIQDQASQASTTSNPDESADTDLYTCRPAYTPKLIKAKSTKCFDKKLKTLEELCDTEYFTQTLAQLSHIEHMFRGDLCYLLTSQIDRALLKQQHITNFLFEDFVEVDDRMVEKQESIPSKPSQDRPPSSSLEECPIPKVLISVGSYKSSVESVLIKMEQELGDEEYKEVEVTELSSFDPQENLDYLDMDMKGSISSGESIEVLGTEKSTSVLSKSDSQASLTVPLSPQVVRSKAVSHRTISEDSIEVLSTCPSEALIPDDFKASYPSAINEEESYPDGNEGAIRFQASISPPELGETEEGSIENTPSQIDSSCCIGKESDGQLVLPSTPAHTHSDEDGVVSSPPQRHRQKDQGFRVDFSVENANPSSRDNSCEGFPAYELDPSHLLASRDISKTSLDNYSDTTSYVSSVASTSSDRIPSAYPAGLSSDRHKKRAGQNALKFIRQYPFAHPAIYSLLSGRTLVVLGEDEAIVRKLVTALAIFVPSYGCYAKPVKHWASSPLHIMDFQKWKLIGLQRVASPAGAGTLHALSRYSRYTSILDLDNKTLRCPLYRGTLVPRLADHRTQIKRGSTYYLHVQSMLTQLCSKAFLYTFCHHLHLPTHDKETEELVASRQMSFLKLTLGLVNEDVRVVQYLAELLKLHYMQESPGTSHPMLRFDYVPSFLYKI
As for B1, in experiment [1], the binding entry is on record as “binds”.

B2: WDR41, Q9HAD4 1-459 (protein)
chain: MLRWLIGGGREPQGLAEKSPLQTIGEEQTQNPYTELLVLKAHHDIVRFLVQLDDYRFASAGDDGIVVVWNAQTGEKLLELNGHTQKITAIITFPSLESCEEKNQLILTASADRTVIVWDGDTTRQVQRISCFQSTVKCLTVLQRLDVWLSGGNDLCVWNRKLDLLCKTSHLSDTGISALVEIPKNCVVAAVGKELIIFRLVAPTEGSLEWDILEVKRLLDHQDNILSLINVNDLSFVTGSHVGELIIWDALDWTMQAYERNFWDPSPQLDTQQEIKLCQKSNDISIHHFTCDEENVFAAVGRGLYVYSLQMKRVIACQKTAHDSNVLHVARLPNRQLISCSEDGSVRIWELREKQQLAAEPVPTGFFNMWGFGRVSKQASQPVKKQQENATSCSLELIGDLIGHSSSVEMFLYFEDHGLVTCSADHLIILWKNGERESGLRSLRLFQKLEENGDLYLAV
As to B2, the binding entry in experiment [2] is listed as “binds”.
